# Assay results: PMC7819943, “Rice protein-binding microarrays: a tool to detect cis-acting elements near promoter regions in rice”
# Amino acid sequences for entries named in this document (tags omitted).
# UniProt Q0JBA9, entry or part of it: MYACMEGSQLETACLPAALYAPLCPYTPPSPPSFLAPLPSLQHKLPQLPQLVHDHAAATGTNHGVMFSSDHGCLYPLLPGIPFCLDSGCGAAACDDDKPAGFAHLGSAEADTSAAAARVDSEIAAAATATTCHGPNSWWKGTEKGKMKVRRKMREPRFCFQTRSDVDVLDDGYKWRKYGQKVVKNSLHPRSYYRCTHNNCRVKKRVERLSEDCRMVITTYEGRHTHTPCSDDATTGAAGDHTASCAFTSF
# Some of the results follow.
# Target: OsWRKY34 (Oryza sativa, UniProt Q0JBA9 1-250)
# Assay: protein-binding microarray (RPBM); PBS, 2% BSA, 51.3 ng/ul salmon testes DNA, 50 uM zinc acetate, 200 nM TF, 25 C, 1 h; high values mean tight binding
# Conditions: protein: recombinant; tags: N-terminal polyhistidine and DsRed monomer fusion (pET32a); label: CyDye5-dUTP incorporated in the synthesized complementary strand; 3' TTTTT single-stranded linker to array surface; dsDNA, one strand shown
# How it was run: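 Polyhistidine-tagged DsRed fusions of transcription factors, joined at the N-terminus, were expressed in E. coli BL21-CodonPlus and isolated on Ni–NTA. They were incubated at 200 nM for 1 h at 25 °C on a custom Agilent array, double-stranded and BSA-blocked, in PBS with 2% BSA, salmon testes DNA and 50 µM zinc acetate. The binding signal is per-feature fluorescence intensity (arbitrary units) read on an Axon 4000B scanner after washing.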
row,Sequence,binding signal
1,AACTTCCTTTGTTTTGCAAAAACTTTTTATATATAAGTTTCGGAGTCACCTAGTGCAG,8420 fluorescence intensity (a.u.)
2,CCGCCCATCTAGTCTTGGCCGCGGCGCCACCTCGCAAGTCCGGAGTCACCTAGTGCAG,8260 fluorescence intensity (a.u.)
3,AACAGTTACAGCCCCATGGATCCATAGCCAGTTAGCCACGCGGAGTCACCTAGTGCAG,8550 fluorescence intensity (a.u.)
4,AAACGGTGCGTTTTTTGCAAAAAAATTCTATAGGAAAGTTCGGAGTCACCTAGTGCAG,63900 fluorescence intensity (a.u.)
5,ACTGTCCTCCACGCACATCACTCGTTTCCATTATTTATACCGGAGTCACCTAGTGCAG,11600 fluorescence intensity (a.u.)
6,GTATGTCCGCTTTCCGTCGGGTCGGTTCCTACCTCCCTGACGGAGTCACCTAGTGCAG,8130 fluorescence intensity (a.u.)
7,AACTTTCAGACATGCCTCTTGCTATACTATATATATTGCACGGAGTCACCTAGTGCAG,8690 fluorescence intensity (a.u.)
8,GCATGACCCCACAACATCTTGATAGTTCATGTTCATTCTCCGGAGTCACCTAGTGCAG,10700 fluorescence intensity (a.u.)
9,TGCTTTTCATGTTTATTGATTTAGGCGCACCTGTTCTGTTCGGAGTCACCTAGTGCAG,8350 fluorescence intensity (a.u.)
10,GGTGATTTGGTTTTGTTTCAGTTTTTTTTTAAAAAAAATGCGGAGTCACCTAGTGCAG,10500 fluorescence intensity (a.u.)
11,AGGGTGGGTGGCGCGGGCCGCCGCCGGTTCGACGCCGGCGCGGAGTCACCTAGTGCAG,10500 fluorescence intensity (a.u.)
12,TATTTACACTACACCCAATATATTTGCTACCAATCCACTTCGGAGTCACCTAGTGCAG,8970 fluorescence intensity (a.u.)
13,AGATATTTACACGTTCATGTCTCCTGATGTTCACAAAGCTCGGAGTCACCTAGTGCAG,8050 fluorescence intensity (a.u.)
14,TTTCTGCACTTGTGGATAACTCTGCAGTGATTTTTTATTTCGGAGTCACCTAGTGCAG,8630 fluorescence intensity (a.u.)
15,CTCTCTCGCTTCTTCTCTGTGTGTGTGTTGCGTGGTGGGGCGGAGTCACCTAGTGCAG,23800 fluorescence intensity (a.u.)
16,AAATTCGCAGTATATATCTCACGCAATACTATTTAAACATCGGAGTCACCTAGTGCAG,8192 fluorescence intensity (a.u.)
17,GTTTGCCTTCACTTATTTTCTTCTAACCTACGACATTTTTCGGAGTCACCTAGTGCAG,10600 fluorescence intensity (a.u.)
18,CCGCTCTTTTTCTCCTTTCCTTCTTGGAGTATCTTTATCTCGGAGTCACCTAGTGCAG,9980 fluorescence intensity (a.u.)
19,CCCCTATTTTGTTACCTCATTATTCTCGTATTCCCCTTTTCGGAGTCACCTAGTGCAG,9810 fluorescence intensity (a.u.)
20,CGGGGCAGTGACCACCACCACCACATCACCCACCGCATTCCGGAGTCACCTAGTGCAG,9180 fluorescence intensity (a.u.)
21,GCTCCAGATCTGTGGGTGTCTTTGGGTGAGTGGGCAAATACGGAGTCACCTAGTGCAG,11200 fluorescence intensity (a.u.)

# Given tab-delimited: entries from further up.
row	Sequence	binding signal
2	CCGCCCATCTAGTCTTGGCCGCGGCGCCACCTCGCAAGTCCGGAGTCACCTAGTGCAG	8260 fluorescence intensity (a.u.)
7	AACTTTCAGACATGCCTCTTGCTATACTATATATATTGCACGGAGTCACCTAGTGCAG	8690 fluorescence intensity (a.u.)
10	GGTGATTTGGTTTTGTTTCAGTTTTTTTTTAAAAAAAATGCGGAGTCACCTAGTGCAG	10500 fluorescence intensity (a.u.)
11	AGGGTGGGTGGCGCGGGCCGCCGCCGGTTCGACGCCGGCGCGGAGTCACCTAGTGCAG	10500 fluorescence intensity (a.u.)
17	GTTTGCCTTCACTTATTTTCTTCTAACCTACGACATTTTTCGGAGTCACCTAGTGCAG	10600 fluorescence intensity (a.u.)
21	GCTCCAGATCTGTGGGTGTCTTTGGGTGAGTGGGCAAATACGGAGTCACCTAGTGCAG	11200 fluorescence intensity (a.u.)

# Later entries

row,Sequence,binding signal
1,GTGCTCATCAATAAGTTATTCTCTCTCTCTCAAACAGAAACGGAGTCACCTAGTGCAG,8880 fluorescence intensity (a.u.)
2,AAACTAGGTCTGTTAATCACGGTTCTAAATTTTATCCCCTCGGAGTCACCTAGTGCAG,8200 fluorescence intensity (a.u.)
3,TCGTTTTTGTTTAGCTACACTAGCCCGTTCTTTTTGACTCCGGAGTCACCTAGTGCAG,11300 fluorescence intensity (a.u.)
4,TTTCTTTTTTTAGACGGAGGGAGTATTTTACAGGGGTTTCCGGAGTCACCTAGTGCAG,8380 fluorescence intensity (a.u.)
5,TCCCGCCACGCCACCCCACTGTTTCATTCCCTCGTGGCGCCGGAGTCACCTAGTGCAG,8160 fluorescence intensity (a.u.)
6,ATCAGTTTTTTGTCAGTTTTGCAATTGCAATTCCAACTTCCGGAGTCACCTAGTGCAG,10200 fluorescence intensity (a.u.)
7,ATTTAACTTTTATGAGTGTCGTATTATTCGCATGTTTTAACGGAGTCACCTAGTGCAG,8560 fluorescence intensity (a.u.)
8,CCTCCTCGTCCTTGGCCTCTTCGTTCCTTTTGTCGAATCTCGGAGTCACCTAGTGCAG,8430 fluorescence intensity (a.u.)
9,CCCTCTCTCTCCCCGTCGCGTAAGGCCGCTATAAATCAACCGGAGTCACCTAGTGCAG,8660 fluorescence intensity (a.u.)
10,TATCTCTTTTGCTATCGATTTCAGTGAGACCCCTGTGATGCGGAGTCACCTAGTGCAG,9110 fluorescence intensity (a.u.)
11,TTTGGTGTTCTTCGCTGCTGTGCGCGATCCGGTTTGGTGACGGAGTCACCTAGTGCAG,9350 fluorescence intensity (a.u.)
12,GCAGACAAGGCCAAATTTTCCATCTTCAACAGCACCATCTCGGAGTCACCTAGTGCAG,9200 fluorescence intensity (a.u.)
13,CTGACAACCTTTAGTACACCTGCTCTAACCGATTCTTACCCGGAGTCACCTAGTGCAG,10400 fluorescence intensity (a.u.)
14,TCTGCACGCCACTTGGGCTCCACCTTAAGACTGTGTTAACCGGAGTCACCTAGTGCAG,8720 fluorescence intensity (a.u.)
15,TCCATCTCCATTTTCCTCGCAATCATTCCGTTCAGTTATACGGAGTCACCTAGTGCAG,10100 fluorescence intensity (a.u.)
16,ACATTCATTGCCTTTTGAGCTTGACCCACACCACTCTGAGCGGAGTCACCTAGTGCAG,8610 fluorescence intensity (a.u.)
17,GCTAGGGTTTGGGAATTTGGTGTCGGCGTCGTCGTCGTCGCGGAGTCACCTAGTGCAG,10500 fluorescence intensity (a.u.)
18,TACCATCCCTCGCTATAGGAGTTTTTTGTTTTTAAGTAACCGGAGTCACCTAGTGCAG,9360 fluorescence intensity (a.u.)
19,TCTTACTCTCTCCATCCCAAAATGTTTGACGCCGTTGACTCGGAGTCACCTAGTGCAG,13400 fluorescence intensity (a.u.)
20,ATCGGTGCTGAAGCTTGGTTCCCATTTCCCGATCTTTTACCGGAGTCACCTAGTGCAG,8330 fluorescence intensity (a.u.)
21,GCTGGTTGGGCTGCCTCATGGGCTTTTGTGGGCCGTAGGCCGGAGTCACCTAGTGCAG,9270 fluorescence intensity (a.u.)

row,Sequence,binding signal
1,TTTGTGGGAGTGGCTTGTTGTTCTAGGAGAAATCGTGGTTCGGAGTCACCTAGTGCAG,9920 fluorescence intensity (a.u.)
2,GTTAACTTTTTAGAACATGTTTGACCGTTCGTCTTATTCACGGAGTCACCTAGTGCAG,8930 fluorescence intensity (a.u.)
3,AGCATCTCTCACACAATGTACTACGACCCTGTTTAGATCCCGGAGTCACCTAGTGCAG,9170 fluorescence intensity (a.u.)
4,GCAATTGGCGTCTGTGGTTTTTTTCCGTAATGATTTTTCACGGAGTCACCTAGTGCAG,9530 fluorescence intensity (a.u.)
5,TCTGAGAGCAGTAACGTTGACCAAGACCAAAGCAAACAACCGGAGTCACCTAGTGCAG,11600 fluorescence intensity (a.u.)
6,ATCATTAGACTTTACTATCCACTCCAAGTAAGGCATTTCCCGGAGTCACCTAGTGCAG,10000 fluorescence intensity (a.u.)
7,TAATCTCCTGCATCTTTGGCCCAATATTCTGGTCCACTCTCGGAGTCACCTAGTGCAG,8710 fluorescence intensity (a.u.)
8,GCTCACCACAGCCATTCGTCCCCGGGCCTCGCCGCGCCGCCGGAGTCACCTAGTGCAG,11100 fluorescence intensity (a.u.)
9,TGTCAGGTTCAGCCAACTCTTGCCGCTCTACCGTCTTCTCCGGAGTCACCTAGTGCAG,8850 fluorescence intensity (a.u.)
10,CTTAACGCAGCCGCAATCCACTTCTCTCGTCTCTTCTCTTCGGAGTCACCTAGTGCAG,9650 fluorescence intensity (a.u.)
11,TTGTTGCTGGTGATGTTGTTCTTTTCATTGTTCCCTTTCCCGGAGTCACCTAGTGCAG,9700 fluorescence intensity (a.u.)
12,CACCATAGTACATGTACAGTTCCATCCATCAGCCTCTATACGGAGTCACCTAGTGCAG,11000 fluorescence intensity (a.u.)
13,CTATATCTTGGAGATAAGTGGTGGTTTGTGATGAAATGTACGGAGTCACCTAGTGCAG,9050 fluorescence intensity (a.u.)
14,GCTAATGCCTGTGAGCCATGTTCATCACCTGTTTCTGTAGCGGAGTCACCTAGTGCAG,9740 fluorescence intensity (a.u.)
15,GGCGGCGCCGGCGCTCGTCCTGCCGCCACCGCCGCGGCCGCGGAGTCACCTAGTGCAG,8320 fluorescence intensity (a.u.)
16,CGAAATGGGAGGCGGGGTTTAGGGTTTCCGGCGGGGAGGGCGGAGTCACCTAGTGCAG,25200 fluorescence intensity (a.u.)
17,CATTTCTTCTGAGTATTCAATGTTTCGTCCCCACGAAAATCGGAGTCACCTAGTGCAG,8540 fluorescence intensity (a.u.)
18,CATCTTACTTAAGGTTGTTGGATCAACTCTTCCCTTCTTCCGGAGTCACCTAGTGCAG,8380 fluorescence intensity (a.u.)
19,CCAGAGTCTCACGGCAACCGTGTCCGTCCGCGCGCGCTCCCGGAGTCACCTAGTGCAG,8940 fluorescence intensity (a.u.)
20,TCTCTGAAGTGTTGTGGAGTTTTTTTTTCTTTGTTTAAATCGGAGTCACCTAGTGCAG,8440 fluorescence intensity (a.u.)
21,ACTAGTGAAGTGTTGCCCGTTGGGTTTGGTGGAGTTTGAACGGAGTCACCTAGTGCAG,8200 fluorescence intensity (a.u.)

row,Sequence,binding signal
1,GAAACAGAAGAATGGCTATGAGTTTGCCAAATCCTTCTATCGGAGTCACCTAGTGCAG,8780 fluorescence intensity (a.u.)
2,CGGTGTTGTAAATTGGGCCCATATGTCGTGTACATGCAAGCGGAGTCACCTAGTGCAG,8080 fluorescence intensity (a.u.)
3,CATCACATCACCAGAATCTATCACCTCTGTCACTGTTCTTCGGAGTCACCTAGTGCAG,11100 fluorescence intensity (a.u.)
4,ATAACATTAACTTCCCAGTTTTGGCACATCTTTACATATTCGGAGTCACCTAGTGCAG,10300 fluorescence intensity (a.u.)
5,ATCATGGCAGTCCCAACCCTCCACCTAGGATATTGTCTATCGGAGTCACCTAGTGCAG,8450 fluorescence intensity (a.u.)
6,TAATAGTATTTGTGTGTTTTTTCCGAGGTTTCTTGTGCTACGGAGTCACCTAGTGCAG,10500 fluorescence intensity (a.u.)
7,TCAGTGTACAATTTCATTTTGTGGCTTTTTAGGTTAGTCACGGAGTCACCTAGTGCAG,8800 fluorescence intensity (a.u.)
8,TCACATCCTGAACAACTTACTCCATTTTCTTTTCTATAGACGGAGTCACCTAGTGCAG,8130 fluorescence intensity (a.u.)
9,ACCATTTTCCCAAGAGATATCGCCATCACGATCTCCCGTACGGAGTCACCTAGTGCAG,8120 fluorescence intensity (a.u.)
10,TCCCGCTGCCGCCTCATTGCCCACCGCCCTTCCTGCCACACGGAGTCACCTAGTGCAG,9220 fluorescence intensity (a.u.)
11,CGCATTCCGTTCCGCCATTGCTGCCATGCCCGAGCTCGCGCGGAGTCACCTAGTGCAG,13000 fluorescence intensity (a.u.)
12,CTCCTCACGTGCATTGCCTCCATGCTGCTCTCTAATTTTCCGGAGTCACCTAGTGCAG,15900 fluorescence intensity (a.u.)
13,CGCATATTGGGATGCGAAGTCGTGACCTTGTTTGTATATCCGGAGTCACCTAGTGCAG,8200 fluorescence intensity (a.u.)
14,GATGATACGTTTATGCCGGTATACTCTGTATGTTAAGTCCCGGAGTCACCTAGTGCAG,8190 fluorescence intensity (a.u.)
15,ACGTACTGAAGCACTTCCGTGTAATTCTGCATCTGGTCAACGGAGTCACCTAGTGCAG,9220 fluorescence intensity (a.u.)
16,TATTCTTTTTGCTTGCTTGGCTCGTTGCTGTCTCCAGAAACGGAGTCACCTAGTGCAG,9080 fluorescence intensity (a.u.)
17,CTCTCTTTCATGCGGCCCAAGTCGGCCCAGCCTCAGCTGACGGAGTCACCTAGTGCAG,8640 fluorescence intensity (a.u.)
18,ACATAAGCATCCGAGGTCATTTCTATTGTTTCTTTTTGTACGGAGTCACCTAGTGCAG,13900 fluorescence intensity (a.u.)
19,GGGTGACCGGTTTTGTATAGTTAAGTAACCCCGTATATTTCGGAGTCACCTAGTGCAG,10600 fluorescence intensity (a.u.)
20,TCTCTCGACGCACGAGTTCAATTTCCACCGCCAGATCAACCGGAGTCACCTAGTGCAG,8710 fluorescence intensity (a.u.)
21,GCAAGCGCTCACCTCACCACCTCACCCTGCAGCGACAGAACGGAGTCACCTAGTGCAG,8330 fluorescence intensity (a.u.)
